# Assay results reported in paper doi:10.1101/383430 (bioRxiv, 2018).
# No constants are given. Whether binding was seen depends on the method and setting. Binding seen in cells or lysates may run through a third protein. Some results given as binding are weak or reduced against the parent protein; the word gives no strength. Tags and fused reporters may be left off the sequences shown.
# B1: FAP52 (flagellar-associated protein 52) (natural protein, Chlamydomonas (endogenous in axonemes), UniProt A8ILK1 1-615, looked up)
# chain: MAEPLVLNSVIGFGGAIENGLIAHPDGRTIIYPLGSTIVLRDRADPRSQEFLQGHSDKVSCLALSRSGRYLASGQITYMGFTADIIIWDLESKQLIHRMALHKVKVQALDFSCDERFLASLGGQDDNALVLWDVASGNAICGSPCNTNFTNCVKFFNNSPDKLITAGNFNMNVWTYDAGNNKLRPTDATLGTLKRVFKSVVVDANDEYAYCGTTTGDVLQIALERVLFKNTGPAKGNVQMGVTATCEVPTGDILVGGGDGSLQLLRKMPALAGTKVEGAITSIALADMNARGFTFFVGTAMCNIYKPATSRLKEELVQTAHNDKINGMAFPNEYSEVFATCGTGFIRLWHLTTCRELLRIAVPNLECFCIAFTTDGSAILSGWSDGKIRAFGPQSGKIIFTINDAHQKAVTAIASTADSSRILSGGEEGMVRVWRIGRTSQTLEASMKDHKGPVNCIRIKGSGDECVSASSDGSCILWDLHTFKRRTSLFANTFFKSVVYHPDESQLVTAGTDRKVTYWDAYDGNAIRIIDGSDLDEVNALAVDRDGEALVSGGGDKLVKLWGYDEGHCYFVGVAHSGAITAVGVTPDKQRIVSVGTEGGIFIWDYQRPQTLADI
# Target: T1, FAP45 (flagellar-associated protein 45) (Chlamydomonas (endogenous in axonemes)) (UniProt A8I9E8)
# T1 sequence: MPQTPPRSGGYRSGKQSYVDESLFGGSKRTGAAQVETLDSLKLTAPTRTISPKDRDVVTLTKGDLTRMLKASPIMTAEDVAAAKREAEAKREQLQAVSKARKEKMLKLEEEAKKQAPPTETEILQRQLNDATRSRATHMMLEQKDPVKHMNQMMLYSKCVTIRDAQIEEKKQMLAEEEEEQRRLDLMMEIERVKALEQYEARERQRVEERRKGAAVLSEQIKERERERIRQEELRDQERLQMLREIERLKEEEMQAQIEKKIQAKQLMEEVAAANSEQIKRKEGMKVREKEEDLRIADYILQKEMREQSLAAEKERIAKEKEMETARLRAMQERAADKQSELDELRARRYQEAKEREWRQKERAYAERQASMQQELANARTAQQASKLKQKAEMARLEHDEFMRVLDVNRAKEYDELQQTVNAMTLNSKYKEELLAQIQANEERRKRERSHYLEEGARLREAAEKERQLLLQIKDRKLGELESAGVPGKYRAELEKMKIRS
# Experiment: cross-linking
binder,measurement,value
B1,binding,binds
